Assay results as given in paper PMC5964144.
These are yes or no findings as the source states them, for the method shown. Binding seen in cells or lysates may run through a third protein. A result given as binding can be weak or reduced; the word gives no strength.

The chains behind the UniProt entries cited, without tags or fusion partners. Where a name states a change or a piece, a line headed by the entry shows the natural chain unless it says otherwise.
UniProt Q9NZH6: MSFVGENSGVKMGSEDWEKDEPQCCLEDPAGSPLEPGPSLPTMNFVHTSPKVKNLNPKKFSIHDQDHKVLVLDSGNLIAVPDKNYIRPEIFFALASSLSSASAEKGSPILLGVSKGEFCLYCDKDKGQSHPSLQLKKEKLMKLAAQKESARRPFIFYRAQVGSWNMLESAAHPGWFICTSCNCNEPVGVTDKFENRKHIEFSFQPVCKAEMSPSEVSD
UniProt P84022: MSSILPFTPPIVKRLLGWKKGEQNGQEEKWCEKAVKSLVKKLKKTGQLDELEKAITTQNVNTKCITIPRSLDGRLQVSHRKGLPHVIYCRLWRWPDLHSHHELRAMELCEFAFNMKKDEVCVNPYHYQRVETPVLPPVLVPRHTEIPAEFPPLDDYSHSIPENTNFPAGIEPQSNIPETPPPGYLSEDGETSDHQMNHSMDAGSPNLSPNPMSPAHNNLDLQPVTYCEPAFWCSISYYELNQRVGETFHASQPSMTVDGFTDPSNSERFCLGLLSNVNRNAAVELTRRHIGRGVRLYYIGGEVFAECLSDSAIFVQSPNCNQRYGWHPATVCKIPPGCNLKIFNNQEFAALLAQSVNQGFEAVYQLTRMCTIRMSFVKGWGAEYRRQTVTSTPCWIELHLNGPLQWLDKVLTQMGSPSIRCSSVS

Molecular target: Flag-tagged IL-37d (IL-37 isoform D) (human) (UniProt Q9NZH6)
Experiment: co-IP; IL-37d-Flag and Myc-Smad3 co-transfected into HEK-293T cells; extracts in IP buffer (1.0% Nonidet P 40, 50 mM Tris-HCl pH 7.4, 50 mM EDTA, 150 mM NaCl, protease inhibitors); anti-FLAG M2 magnetic beads for 6 h, five washes; immunoblot with anti-Smad3 antibody

Substance: Myc-tagged Smad3 (from UniProt P84022 1-425)
- binding: binds
